Measured values reported in paper PMC7583250, “Type III ATP synthase is a symmetry-deviated dimer that induces membrane curvature through tetramerization” (Nature Communications, 2020).

Tests used:
Assay in all cases: cryo-EM structure; native IF1-inhibited ATP synthase dimer purified from T. thermophila mitochondria in digitonin (25 mM Hepes/KOH pH 7.5, 25 mM KCl, 5 mM MgCl2, 0.1% w/v digitonin); 2.7 Å overall, masked refinements 2.5-3.1 Å; both purified
[1] = target: ATPTT7 (Tetrahymena thermophila (endogenous in its mitochondria))
[2] = target: ATPTT8 (Tetrahymena thermophila (endogenous in its mitochondria))
[3] = target: ATPTT9 (Tetrahymena thermophila (endogenous in its mitochondria))
[4] = target: ATP synthase subunit d (Tetrahymena thermophila (endogenous in its mitochondria))
[5] = target: ATP synthase Fo subunit c (Tetrahymena thermophila (endogenous in its mitochondria))
[6] = target: ATPTT6 (Tetrahymena thermophila (endogenous in its mitochondria))
[7] = target: ATPTT12 (Tetrahymena thermophila (endogenous in its mitochondria))
[8] = target: ATP synthase subunit-k (Tetrahymena thermophila (endogenous in its mitochondria))
[9] = target: ATP synthase subunit-8 (Tetrahymena thermophila (endogenous in its mitochondria))
[10] = target: ATP synthase subunit-i/j (Tetrahymena thermophila (endogenous in its mitochondria))
[11] = target: ATPTT5 (Tetrahymena thermophila (endogenous in its mitochondria))

binding [1]: binds
binding [2]: binds
binding [3]: binds
binding [4]: binds
binding [5]: binds
binding [6]: binds
binding [7]: binds
binding [8]: binds
binding [9]: binds
binding [10]: binds
binding [11]: binds
B1: ATP synthase subunit-a (natural protein, UniProt Q951C1 1-446, looked up)
chain: MGRENVLPVHNDVYEDFVFTTPYFQPESTFKSVPKLFSDILLGGVEWVYTTSESVLAYDYKLWYLWSGVSNLDESFDMFFNQYWALSLSTSVFQLFYAVILDRYLSVLFQNTPYTNDWFRMMLHSKETALIWLYHPELSWHINGLNQFFTYFYGGILEFVYFDKSNPDMCILVHTLWIHLLILFLIFTGFVTILFSFYGNPNTEENTIDSDYLAASGTVEAEKEITSIDDYLGLVFAIAYVFGVFFYVHGWTSMLSHAVLLLSCYSIIIMFLFILGMPTLLLYDFGIFFLAYLKGAGKYISSVAEMMFDYTACLVFYIRILAQWIRVVLMVVTFISLSHYVSDFDITNSALIGSENQSDSMNELNTNFSMTYYILTVLPGKFIYWIYEILHTFFVVCSQFVAFFAIVFWLFLFLYTFFIIEKHEDFFSKKREERKKKLKELWNLKN
notes: ATP synthase subunit a, Tetrahymena thermophila; overall length of 446 amino acids, with 170- and 38-amino acid N- and C-terminal extensions; source: endogenous, purified from T. thermophila mitochondria within the ATP synthase (digitonin, sucrose cushion, Superose 6)

Results are given in words; binding and its absence hold for the method and conditions named. Binding can be weak; no strength is given.
